# Source: PubChem BioAssay AID1508597 (Cure First, 2020)
# Test: 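Survival screen with siRNA in ovarian cancer cells derived from patients, with or without rucaparib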 (primary screen)
# Cell system: human ovarian carcinoma lines grown from tumours: OCI-P5x (papillary serous) and OCI-C5x (clear cell)
# Reagents: siRNA pool against human genes, 1.25 pmol siRNA per well
# Timing: 72 h or 96 h, depending on the cell culture
# Conditions: rucaparib 20 µM (about IC30) or vehicle, present until read-out
# Rucaparib or vehicle: Vehicle
# Cell line: OCI-P5x (serous)
# Read-out: 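ATP luminescence measured at 72 or 96 h according to the culture, then normalised and expressed as percent viability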
# Direction: viability, normalised: higher = more viable cells remaining
# Active means: 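Active when normalised viability falls below 80 percent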
# Calls: active = viability under 80%; inactive = viability 80% or more
# This is a random part of the about 2,100 reagents, under one of the conditions tested. 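Calls flag viability under 80% in either arm, not effects specific to rucaparib; the reference for percent is not stated.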 A number with no mark means an inactive call. Some reagents were tested in more than one well and are listed for each. Not given: the 100% reference.
Target gene,PubChem SID,technical replicate,"viability, normalised (%)"
MACROH2A2,SID405526834,1,52.2 (active)
MACROH2A2,SID405526834,2,66 (active)
MACROH2A2,SID405526834,3,105
DPY30,SID405526732,1,69.3 (active)
DPY30,SID405526732,2,67.3 (active)
DPY30,SID405526732,3,57.6 (active)
PML,SID405527170,1,54.3 (active)
PML,SID405527170,1,55.8 (active)
PML,SID405527170,2,46.6 (active)
PML,SID405527170,2,60.4 (active)
PML,SID405527170,3,54.1 (active)
PML,SID405527170,3,67.3 (active)
DGUOK,SID405527560,1,99.9
DGUOK,SID405527560,2,86.2
DGUOK,SID405527560,3,71.8 (active)
PHIP,SID405527159,1,62.9 (active)
PHIP,SID405527159,2,60.8 (active)
PHIP,SID405527159,3,81.6
KDR,SID405527833,1,56.6 (active)
KDR,SID405527833,2,68.7 (active)
KDR,SID405527833,3,75.1 (active)
BMPR1B,SID405527618,1,83.8
BMPR1B,SID405527618,2,72.6 (active)
BMPR1B,SID405527618,3,85.7
TPP1,SID405528472,1,64.7 (active)
TPP1,SID405528472,2,65.4 (active)
TPP1,SID405528472,3,65.1 (active)
NDUFA10,SID405527383,1,98.3
NDUFA10,SID405527383,2,87.8
NDUFA10,SID405527383,3,99.7

Entries above whose target name starts with B or b (3):
Target gene,PubChem SID,technical replicate,"viability, normalised (%)"
BMPR1B,SID405527618,1,83.8
BMPR1B,SID405527618,2,72.6 (active)
BMPR1B,SID405527618,3,85.7

The listing continues:
Target gene,PubChem SID,technical replicate,"viability, normalised (%)"
NOG,SID405527085,1,37.6 (active)
NOG,SID405527085,2,46 (active)
NOG,SID405527085,3,64.6 (active)
KPNA3,SID405528364,1,76 (active)
KPNA3,SID405528364,2,57.6 (active)
KPNA3,SID405528364,3,69.5 (active)
TP53,SID405526423,1,57.9 (active)
TP53,SID405526423,1,74.2 (active)
TP53,SID405526423,1,94.5
TP53,SID405526423,2,97.5
TP53,SID405526423,2,74.6 (active)
TP53,SID405526423,2,86.4
TP53,SID405526423,3,69.3 (active)
TP53,SID405526423,3,76.6 (active)
TP53,SID405526423,3,97.4
MPP3,SID405528575,1,69.4 (active)
MPP3,SID405528575,2,54.7 (active)
MPP3,SID405528575,3,55.2 (active)
ARID5A,SID405527980,1,35.4 (active)
ARID5A,SID405527980,2,60.2 (active)
ARID5A,SID405527980,3,66.7 (active)
MTRF1,SID405527038,1,50.1 (active)
MTRF1,SID405527038,2,39 (active)
MTRF1,SID405527038,3,51.1 (active)
AGO3,SID405527956,1,65.7 (active)
AGO3,SID405527956,2,67.9 (active)
AGO3,SID405527956,3,77 (active)
